Results are given in words; binding and its absence hold for the method and conditions named. In cells and extracts the contact can be indirect. Tags and fused reporters may be left off the sequences shown.
Biological target: Xpress-tagged BcrΔoligo (UniProt P11274)
Assay: cross-linking; enzymatic cross-linking by TG2 in cell lysates (50 ug) in transglutaminase assay buffer (50 mM Tris pH 8.0, 150 mM NaCl, 1% Triton X-100, 1 mM DTT) with or without 5 mM CaCl2, 2 h at 37 °C; TG2 co-transfected or guinea pig TG2 added; high molecular weight Bcr seen by Western blot

B1: Xpress-tagged BcrΔoligo (protein, UniProt P11274)
chain: MAKEKKSYDRQRWGFRRAAQAPDGASEPRASASRPQPAPADGADPPPAEEPEARPDGEGSPGKARPGTARRPGAAASGERDDRGPPASVAALRSNFERIRKGHGQPGADAEKPFYVNVEFHHERGLVKVNDKEVSDRISSLGSQAMQMERKKSQHGAGSSVGDASRPPYRGRSSESSCGVDGDYEDAELNPRFLKDNLIDANGGSRPPWPPLEYQPYQSIYVGGMMEGEGKGPLLRSQSTSEQEKRLTWPRRSYSPRSFEDCGGGYTPDCSSNENLTSSEEDFSSGQSSRVSPSPTTYRMFRDKSRSPSQNSQQSFDSSSPPTPQCHKRHRHCPVVVSEATIVGVRKTGQIWPNDGEGAFHGDADGSFGTPPGYGCAADRAEEQRRHQDGLPYIDDSPSSSPHLSSKGRGSRDALVSGALESTKASELDLEKGLEMRKWVLSGILASEETYLSHLEALLLPMKPLKAAATTSQPVLTSQQIETIFFKVPELYEIHKEFYDGLFPRVQQWSHQQRVGDLFQKLASQLGVYRAFVDNYGVAMEMAEKCCQANAQFAEISENLRARSNKDAKDPTTKNSLETLLYKPVDRVTRSTLVLHDLLKHTPASHPDHPLLQDALRISQNFLSSINEEITPRRQSMTVKKGEHRQLLKDSFMVELVEGARKLRHVFLFTDLLLCTKLKKQSGGKTQQYDCKWYIPLTDLSFQMVDELEAVPNIPLVPDEELDALKIKISQIKNDIQREKRANKGSKATERLKKKLSEQESLLLLMSPSMAFRVHSRNGKSYTFLISSDYERAEWRENIREQQKKCFRSFSLTSVELQMLTNSCVKLQTVHSIPLTINKEDDESPGLYGFLNVIVHSATGFKQSSNLYCTLEVDSFGYFVNKAKTRVYRDTAEPNWNEEFEIELEGSQTLRILCYEKCYNKTKIPKEDGESTDRLMGKGQVQLDPQALQDRDWQRTVIAMNGIEVKLSVKFNSREFSLKRMPSRKQTGVFGVKIAVVTKRERSKVPYIVRQCVEEIERRGMEEVGIYRVSGVATDIQALKAAFDVNNKDVSVMMSEMDVNAIAGTLKLYFRELPEPLFTDEFYPNFAEGIALSDPVAKESCMLNLLLSLPEANLLTFLFLLDHLKRVAEKEAVNKMSLHNLATVFGPTLLRPSEKESKLPANPSQPITMTDSWSLEVMSQVQVLLYFLQLEAIPAPDSKRQSILFSTEV
  binding: no binding

— paper PMC3044668
